B1: tRNA (parent)
chain: GUUCCGUUGGCGUAAUGGUAACGCGUCUCCCUCCUAAGGAGAAGACUGCGGGUUCGAGUCCCGUACGGAACG

In the RNAGym collection of RNA variant scans (doi:10.1126/science.aae0568) one finds yeast fitness data, which are given here for 114 variants.

Variants at the floor of the assay are shown more often than the library holds them.

This series covers variants of B1. The experiment in a line: yeast fitness relative to wild type (ratio to wild type); higher = fitter; tRNA-Arg(CCU), competitive growth, 37 C, YPD. A digest of the protocol:
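A pool of Saccharomyces cerevisiae strains, each with a tRNA-Arg(CCU) gene variant at the native genomic locus, was competed in YPD at 37°C for 24 hours across six parallel replicates. The variants had been chemically synthesised at a 3% per-site mutation rate over 69 sites, and gene amplicons before and after competition were read by 100-nucleotide paired-end sequencing. Darwinian fitness relative to wild type rested on changes in genotype frequencies. Genotypes required ≥ 100 starting reads, and estimates < 0.5 were set to 0.5.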
For C5G G9C A43G, the yeast fitness was 0.667. U35C G48C U53A C61U: the yeast fitness is not above 0.5. For the variant G25C C31A G68A, the yeast fitness was not above 0.5. As for A21C C34U, the yeast fitness was determined as 0.536. With G9A U16C U28A C34U A42C G48C, the yeast fitness was not above 0.5. In the case of C5G A36U C60G G63C, the yeast fitness was not above 0.5. In the case of A15C U47A, the yeast fitness was found to be 1.09. On to U8G U16A G41C, for which the yeast fitness was not above 0.5. The value for C11G A36G G50C was not above 0.5. For the variant C11U G39C C55U, the yeast fitness is not above 0.5. U13C C34G A43U: the yeast fitness is not above 0.5. On to A14U U59C A70C, for which the yeast fitness is not above 0.5. Take G6A A20G A37G G68A A69G: the yeast fitness is not above 0.5. As for C22G C27G U54C C66U, the yeast fitness is not above 0.5.

C5A A14U C27U C49G U54C: the yeast fitness was not above 0.5. As for C5G A20C A40U A45G C46U, the yeast fitness is not above 0.5. G10A G44A C66U: the yeast fitness turned out to be 0.534.

On to G12C U19A C27G A65C, for which the yeast fitness came to 0.557.

As for A21C G25C C27G, the yeast fitness is not above 0.5. Turning to C30U A36U G63A, the yeast fitness was not above 0.5.

Turning to C22U G41C C49G, the yeast fitness was not above 0.5. The value for U2A G9C U16G U32G C55A was not above 0.5; that for U26A C29A C31G was not above 0.5; that for U28C G52C A65C was 0.596. On to C24U C33U A69C, for which the yeast fitness was not above 0.5.

In the case of A14U C22A A65U, the yeast fitness was not above 0.5. The value for G18A A21C C33G A37U U64G was not above 0.5; that for G12A C22G C24G U47C was not above 0.5; that for C5A C22U A45G C49A A69C was not above 0.5. For C5A A69U A70C, the yeast fitness amounted to 0.768. Regarding U3G C4U G44C, the yeast fitness is not above 0.5.

On to A20U C29U A36C, for which the yeast fitness was not above 0.5. Consider C11A G25C C29U A65C, for which the yeast fitness is not above 0.5. Turning to C11G C30U A43C C49U U64A, the yeast fitness is not above 0.5.

C33U A57G U59A: the yeast fitness was not above 0.5. Take U3A A37C G44C A45U: the yeast fitness was not above 0.5. With C24G A36G U54C U64C, the yeast fitness was not above 0.5.

In the case of C11A C31U U59A, the yeast fitness was not above 0.5. The value for G10A C27U C33U A43U U54C was not above 0.5; that for U2A C4U U8G C55G A70C was not above 0.5; that for G17U A37U was not above 0.5. As to C4A U54G, the yeast fitness turned out to be 0.612. For the variant G18U C34U, the yeast fitness was not above 0.5. Consider G6C U13A, for which the yeast fitness turned out to be 0.718. For G10C C22A C24G A36G G39C C55U C66U the value was not above 0.5; for G17A G25A G48C C62A, not above 0.5. Regarding U2A C31G C61G, the yeast fitness was not above 0.5. For C5A C34U C55A the value was not above 0.5; for C27U C30U A37C, not above 0.5. Take A14U C30A C66U: the yeast fitness was 0.547.

C4G C11U G18A C22U A43U: the yeast fitness is not above 0.5.

As to C11A C24A G48A, the yeast fitness was not above 0.5. As to U2C C60G A65G, the yeast fitness was not above 0.5. For the variant A20U C29U C30U C49G C55A, the yeast fitness was not above 0.5. With U2A C4A C31U G38A, the yeast fitness was not above 0.5. Regarding U2A U28C C49U C62G, the yeast fitness was not above 0.5. With G6A A20U G25A, the yeast fitness stood at 0.574. Turning to U8A C22U C24A U26C G39C, the yeast fitness is not above 0.5. Consider C31G C49G U64C, for which the yeast fitness is not above 0.5. Consider G6C G39C C49U G67C, for which the yeast fitness is not above 0.5. For C33U A37G A42C A65C A69C the value was not above 0.5.

With C4U A42G G51C U59G, the yeast fitness is not above 0.5. For the variant U3C A14C, the yeast fitness came to 0.703. Regarding U8C U16G C62G C66G A69C, the yeast fitness is not above 0.5. As to C4G U7G C29A U53A C60G, the yeast fitness was not above 0.5. Turning to U26C C34A C46U A57C, the yeast fitness was not above 0.5.

Consider C22U C34A A43U C66A, for which the yeast fitness is not above 0.5. For U19C A45G C62U the value was 0.953; for U8C G44A, 1.01.

With C33G G52A G56U, the yeast fitness is not above 0.5. On to A14G C27U U47A G56A C62U, for which the yeast fitness was not above 0.5. On to A21C C27A U28A A45G A69C, for which the yeast fitness was not above 0.5.

For A36G A42G C49G, the yeast fitness is not above 0.5.

For the variant U2C C24G A40C G56U, the yeast fitness is not above 0.5. For C24A A37U C60A C66U, the yeast fitness is not above 0.5. Take A65U A70G: the yeast fitness came to 1.05. Take C5A A14G: the yeast fitness was found to be 0.912. Regarding G10A G12A C30G, the yeast fitness is not above 0.5.

With C11G G56C A57G C61G C66U A69G, the yeast fitness was not above 0.5. As to C5A G52C C66U, the yeast fitness is not above 0.5. For G6A U53C A57C the value was not above 0.5; for C4G G9A G12C C29A G50C, not above 0.5. For A21G C33G G38A A69C the value was not above 0.5; for G10C C33U C62A, not above 0.5; for G6A G17C U19C C29A U32C G44C G48A, not above 0.5. The value for G18A C31U was 0.663; that for C5U C34A A45C C46U was not above 0.5; that for C4G U7G G12C A20U U35C G44A G48C C55G A69U was not above 0.5.

Turning to U2A U3C C24G C33G C66U, the yeast fitness is not above 0.5. For G17A U28C A42C C62U A70U the value was not above 0.5; for C4A G9C C11G G44C C55U, not above 0.5; for U35G A40U C61A, not above 0.5. The value for A21U C34G A69U was not above 0.5; that for U3G U7C C27A A57C C62U was not above 0.5; that for C11U A42C G50C C66U was not above 0.5.

A15C U53C C60A C66A: the yeast fitness is not above 0.5. The value for G17C C24G U28A C30U A42G A65U A69C was not above 0.5. For U16C U26A A43U C62U, the yeast fitness is not above 0.5. The value for C4A U28G U47G was not above 0.5; that for C27U G52C G67A was not above 0.5. Turning to G12C G18C C55A A69C, the yeast fitness was not above 0.5.

On to U2G U13G U16C C55G A69C, for which the yeast fitness is not above 0.5. The value for C11U G48A C55G A57U was not above 0.5; that for C31U G44A A45U was 0.893.

Take C24A U26A C31A C62A: the yeast fitness is not above 0.5. Turning to G6C U7A G23C C62U, the yeast fitness was not above 0.5.

U13A G18A A69U: the yeast fitness is 0.618.

With C22U A37C, the yeast fitness is 0.593.

Regarding C4U A21U C24G U47C, the yeast fitness was not above 0.5. In the case of A43C C49U G63U, the yeast fitness was not above 0.5. Regarding U28G C31G G39A, the yeast fitness was 0.578.

For the variant U26C A43G, the yeast fitness was 1.01. As to G17C A36G A45G, the yeast fitness turned out to be 0.505. Regarding U3C A15G A36G A70G, the yeast fitness was not above 0.5.
